Assay results reported in the supplement of paper PMC10849652.
The other results are listed elsewhere or left out.

By UniProt entry, the sequences of proteins in these tests, tags left out. Where a name states a change or a piece, a line headed by the entry shows the natural chain unless it says otherwise.
UniProt Q9Y385: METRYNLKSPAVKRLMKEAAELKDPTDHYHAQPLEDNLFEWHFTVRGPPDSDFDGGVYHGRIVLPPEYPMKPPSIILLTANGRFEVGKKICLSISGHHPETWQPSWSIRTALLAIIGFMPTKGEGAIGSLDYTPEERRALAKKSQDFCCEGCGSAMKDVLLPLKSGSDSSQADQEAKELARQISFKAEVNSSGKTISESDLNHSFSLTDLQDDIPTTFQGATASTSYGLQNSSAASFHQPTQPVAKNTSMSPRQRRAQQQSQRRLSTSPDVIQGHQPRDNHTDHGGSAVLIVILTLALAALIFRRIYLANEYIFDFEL
UniProt P62256: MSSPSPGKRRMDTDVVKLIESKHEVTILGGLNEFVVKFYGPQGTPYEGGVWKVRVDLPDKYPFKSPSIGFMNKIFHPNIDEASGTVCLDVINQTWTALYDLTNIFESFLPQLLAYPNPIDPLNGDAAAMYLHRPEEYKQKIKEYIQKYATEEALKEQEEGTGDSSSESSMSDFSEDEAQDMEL
UniProt Q14157: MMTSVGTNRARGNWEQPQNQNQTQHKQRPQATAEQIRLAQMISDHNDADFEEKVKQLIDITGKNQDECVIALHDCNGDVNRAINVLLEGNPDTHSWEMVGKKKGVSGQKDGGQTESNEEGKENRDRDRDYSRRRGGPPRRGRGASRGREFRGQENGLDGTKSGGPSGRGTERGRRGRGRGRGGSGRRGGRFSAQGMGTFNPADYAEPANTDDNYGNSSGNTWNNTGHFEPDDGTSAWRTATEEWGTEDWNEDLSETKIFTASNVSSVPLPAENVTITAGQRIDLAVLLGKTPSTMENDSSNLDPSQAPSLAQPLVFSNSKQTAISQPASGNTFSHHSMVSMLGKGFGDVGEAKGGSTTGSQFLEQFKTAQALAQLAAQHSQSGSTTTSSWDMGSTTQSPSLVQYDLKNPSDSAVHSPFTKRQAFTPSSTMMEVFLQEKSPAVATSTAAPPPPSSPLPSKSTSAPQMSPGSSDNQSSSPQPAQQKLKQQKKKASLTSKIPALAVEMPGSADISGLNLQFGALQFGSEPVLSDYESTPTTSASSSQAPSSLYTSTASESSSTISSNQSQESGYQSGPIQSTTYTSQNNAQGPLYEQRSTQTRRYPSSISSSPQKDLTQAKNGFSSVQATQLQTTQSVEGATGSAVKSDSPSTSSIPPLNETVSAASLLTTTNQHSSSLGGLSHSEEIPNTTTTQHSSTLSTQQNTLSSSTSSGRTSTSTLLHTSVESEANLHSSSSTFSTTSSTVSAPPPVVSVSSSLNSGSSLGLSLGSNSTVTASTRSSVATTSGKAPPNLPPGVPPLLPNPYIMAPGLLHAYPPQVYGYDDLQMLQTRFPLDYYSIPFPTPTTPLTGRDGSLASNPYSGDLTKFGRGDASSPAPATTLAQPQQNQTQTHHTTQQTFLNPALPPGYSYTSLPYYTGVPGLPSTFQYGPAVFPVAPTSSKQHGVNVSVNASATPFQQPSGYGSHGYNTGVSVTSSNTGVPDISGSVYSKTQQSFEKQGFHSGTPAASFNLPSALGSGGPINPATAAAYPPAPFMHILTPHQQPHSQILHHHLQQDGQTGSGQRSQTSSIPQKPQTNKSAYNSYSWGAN
UniProt O43396: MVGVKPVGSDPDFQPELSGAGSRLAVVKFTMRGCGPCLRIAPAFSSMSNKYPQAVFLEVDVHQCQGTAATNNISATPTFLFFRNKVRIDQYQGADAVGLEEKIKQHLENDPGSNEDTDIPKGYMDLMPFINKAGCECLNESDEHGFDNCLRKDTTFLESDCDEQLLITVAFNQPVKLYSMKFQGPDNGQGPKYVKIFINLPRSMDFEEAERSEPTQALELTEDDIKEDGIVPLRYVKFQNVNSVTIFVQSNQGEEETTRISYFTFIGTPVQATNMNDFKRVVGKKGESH
UniProt Q3KQV9: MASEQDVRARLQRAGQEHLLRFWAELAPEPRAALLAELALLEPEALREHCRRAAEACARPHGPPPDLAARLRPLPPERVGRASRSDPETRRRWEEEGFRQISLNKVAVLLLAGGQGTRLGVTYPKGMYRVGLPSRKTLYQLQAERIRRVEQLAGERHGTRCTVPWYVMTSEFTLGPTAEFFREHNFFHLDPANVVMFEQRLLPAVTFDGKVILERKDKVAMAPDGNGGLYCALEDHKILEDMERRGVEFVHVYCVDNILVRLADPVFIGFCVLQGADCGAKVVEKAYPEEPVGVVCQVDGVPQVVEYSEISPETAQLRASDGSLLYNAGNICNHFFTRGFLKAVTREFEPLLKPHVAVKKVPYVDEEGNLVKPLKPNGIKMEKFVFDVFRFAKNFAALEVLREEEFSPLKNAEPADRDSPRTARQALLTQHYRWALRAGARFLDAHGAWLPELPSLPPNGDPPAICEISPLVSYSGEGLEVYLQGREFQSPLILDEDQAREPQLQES
UniProt Q9NZ09: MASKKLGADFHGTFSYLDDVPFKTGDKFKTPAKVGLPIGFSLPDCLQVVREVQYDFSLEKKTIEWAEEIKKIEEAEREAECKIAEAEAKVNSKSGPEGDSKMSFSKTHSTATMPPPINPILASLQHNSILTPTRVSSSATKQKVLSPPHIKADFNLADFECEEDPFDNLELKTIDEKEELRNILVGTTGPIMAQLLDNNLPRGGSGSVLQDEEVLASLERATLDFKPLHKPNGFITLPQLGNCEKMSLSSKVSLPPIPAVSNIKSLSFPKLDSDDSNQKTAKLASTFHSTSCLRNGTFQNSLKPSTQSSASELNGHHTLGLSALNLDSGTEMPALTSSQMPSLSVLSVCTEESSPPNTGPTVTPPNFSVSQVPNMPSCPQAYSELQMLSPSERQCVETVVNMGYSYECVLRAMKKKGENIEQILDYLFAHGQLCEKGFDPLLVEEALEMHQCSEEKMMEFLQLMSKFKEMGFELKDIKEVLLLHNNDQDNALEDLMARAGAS
UniProt P68363, whole entry, looked up: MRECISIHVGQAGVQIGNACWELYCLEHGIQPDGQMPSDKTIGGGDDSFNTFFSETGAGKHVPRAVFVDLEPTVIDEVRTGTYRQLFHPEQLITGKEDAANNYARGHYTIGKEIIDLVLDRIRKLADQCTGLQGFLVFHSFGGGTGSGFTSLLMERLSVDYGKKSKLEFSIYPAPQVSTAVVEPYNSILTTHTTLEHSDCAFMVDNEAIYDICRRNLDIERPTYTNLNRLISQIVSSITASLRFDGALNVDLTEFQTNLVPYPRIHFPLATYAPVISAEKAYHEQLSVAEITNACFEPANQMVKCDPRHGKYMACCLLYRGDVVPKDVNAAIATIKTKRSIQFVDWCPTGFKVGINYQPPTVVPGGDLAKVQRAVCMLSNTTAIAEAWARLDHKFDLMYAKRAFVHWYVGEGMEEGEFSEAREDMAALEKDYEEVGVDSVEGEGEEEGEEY
UniProt P62253: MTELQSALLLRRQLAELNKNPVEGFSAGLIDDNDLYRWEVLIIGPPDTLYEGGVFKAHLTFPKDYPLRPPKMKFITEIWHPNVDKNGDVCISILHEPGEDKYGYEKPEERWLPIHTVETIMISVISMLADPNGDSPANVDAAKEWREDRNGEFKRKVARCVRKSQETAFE
UniProt Q9NV66: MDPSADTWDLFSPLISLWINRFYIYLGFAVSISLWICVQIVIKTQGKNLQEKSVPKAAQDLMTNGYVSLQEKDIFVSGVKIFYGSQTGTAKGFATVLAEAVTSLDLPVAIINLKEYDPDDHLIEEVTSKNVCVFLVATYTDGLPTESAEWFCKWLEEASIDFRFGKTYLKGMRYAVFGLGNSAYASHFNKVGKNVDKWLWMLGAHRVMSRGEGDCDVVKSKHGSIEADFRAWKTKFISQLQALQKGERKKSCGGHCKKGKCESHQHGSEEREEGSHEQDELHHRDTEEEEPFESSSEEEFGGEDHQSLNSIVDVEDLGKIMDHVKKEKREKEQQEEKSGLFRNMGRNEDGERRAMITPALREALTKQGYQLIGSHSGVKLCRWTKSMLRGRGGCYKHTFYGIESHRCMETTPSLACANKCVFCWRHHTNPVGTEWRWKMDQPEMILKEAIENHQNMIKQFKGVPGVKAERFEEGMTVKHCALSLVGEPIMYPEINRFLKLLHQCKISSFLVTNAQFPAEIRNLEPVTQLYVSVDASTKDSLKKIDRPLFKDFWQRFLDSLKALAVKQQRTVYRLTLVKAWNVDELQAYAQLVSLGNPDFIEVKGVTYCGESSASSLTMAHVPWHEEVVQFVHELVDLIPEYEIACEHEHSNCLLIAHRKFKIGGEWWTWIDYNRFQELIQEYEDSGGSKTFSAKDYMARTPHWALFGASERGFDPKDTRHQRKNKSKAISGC
UniProt Q99757: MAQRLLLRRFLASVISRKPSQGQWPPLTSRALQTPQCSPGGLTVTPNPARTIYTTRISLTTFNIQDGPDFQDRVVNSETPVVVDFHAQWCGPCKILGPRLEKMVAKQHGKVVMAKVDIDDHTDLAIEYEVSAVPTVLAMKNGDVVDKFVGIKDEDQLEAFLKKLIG
UniProt Q13509, whole entry, looked up: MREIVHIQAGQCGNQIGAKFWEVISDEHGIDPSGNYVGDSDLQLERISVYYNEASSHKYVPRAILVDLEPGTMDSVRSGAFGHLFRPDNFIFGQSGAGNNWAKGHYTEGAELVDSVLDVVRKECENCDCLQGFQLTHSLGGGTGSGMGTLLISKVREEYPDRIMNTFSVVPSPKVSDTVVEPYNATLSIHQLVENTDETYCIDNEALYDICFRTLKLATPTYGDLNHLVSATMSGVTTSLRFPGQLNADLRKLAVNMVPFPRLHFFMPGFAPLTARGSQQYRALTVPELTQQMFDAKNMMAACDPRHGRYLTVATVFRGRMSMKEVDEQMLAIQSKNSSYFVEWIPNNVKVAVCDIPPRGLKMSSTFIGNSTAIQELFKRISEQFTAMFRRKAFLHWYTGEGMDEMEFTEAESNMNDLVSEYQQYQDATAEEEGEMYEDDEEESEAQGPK
UniProt P43897: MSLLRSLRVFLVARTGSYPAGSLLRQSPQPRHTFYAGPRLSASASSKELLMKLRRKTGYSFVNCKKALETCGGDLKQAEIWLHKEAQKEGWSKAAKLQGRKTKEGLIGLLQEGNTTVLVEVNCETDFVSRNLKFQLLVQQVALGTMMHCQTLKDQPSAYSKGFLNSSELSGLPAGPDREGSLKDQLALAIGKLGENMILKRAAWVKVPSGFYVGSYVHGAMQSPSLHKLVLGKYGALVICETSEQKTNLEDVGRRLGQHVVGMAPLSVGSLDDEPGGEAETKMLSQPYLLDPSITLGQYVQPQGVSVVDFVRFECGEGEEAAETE
UniProt Q6IBS0: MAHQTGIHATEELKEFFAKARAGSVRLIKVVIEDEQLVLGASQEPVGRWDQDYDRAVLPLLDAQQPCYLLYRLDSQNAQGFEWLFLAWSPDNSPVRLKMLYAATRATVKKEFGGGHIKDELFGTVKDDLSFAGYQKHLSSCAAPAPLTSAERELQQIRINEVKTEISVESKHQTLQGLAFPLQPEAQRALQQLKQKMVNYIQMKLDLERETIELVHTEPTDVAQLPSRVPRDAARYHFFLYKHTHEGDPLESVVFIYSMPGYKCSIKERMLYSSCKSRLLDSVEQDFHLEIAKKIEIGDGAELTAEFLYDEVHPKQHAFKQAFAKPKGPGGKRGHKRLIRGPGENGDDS
UniProt Q5BVD1: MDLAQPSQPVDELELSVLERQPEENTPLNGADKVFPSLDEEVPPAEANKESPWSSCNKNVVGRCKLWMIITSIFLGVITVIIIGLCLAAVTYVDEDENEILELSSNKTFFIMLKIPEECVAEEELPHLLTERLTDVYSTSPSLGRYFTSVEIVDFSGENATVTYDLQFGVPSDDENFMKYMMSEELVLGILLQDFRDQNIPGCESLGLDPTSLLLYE
UniProt P26368, whole entry, looked up: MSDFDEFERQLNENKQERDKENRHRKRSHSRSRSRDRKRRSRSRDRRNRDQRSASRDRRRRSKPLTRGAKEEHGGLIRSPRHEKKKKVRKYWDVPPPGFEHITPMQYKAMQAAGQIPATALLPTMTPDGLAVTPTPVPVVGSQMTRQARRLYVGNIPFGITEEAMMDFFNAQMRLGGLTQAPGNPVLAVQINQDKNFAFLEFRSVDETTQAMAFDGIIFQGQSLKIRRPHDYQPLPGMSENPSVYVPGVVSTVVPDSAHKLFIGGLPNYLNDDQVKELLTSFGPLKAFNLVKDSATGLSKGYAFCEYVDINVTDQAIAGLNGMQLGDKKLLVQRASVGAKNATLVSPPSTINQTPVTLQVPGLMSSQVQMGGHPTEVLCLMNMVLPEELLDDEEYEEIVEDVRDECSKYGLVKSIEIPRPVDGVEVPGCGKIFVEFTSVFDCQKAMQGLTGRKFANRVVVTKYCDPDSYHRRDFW
UniProt Q9BTX7: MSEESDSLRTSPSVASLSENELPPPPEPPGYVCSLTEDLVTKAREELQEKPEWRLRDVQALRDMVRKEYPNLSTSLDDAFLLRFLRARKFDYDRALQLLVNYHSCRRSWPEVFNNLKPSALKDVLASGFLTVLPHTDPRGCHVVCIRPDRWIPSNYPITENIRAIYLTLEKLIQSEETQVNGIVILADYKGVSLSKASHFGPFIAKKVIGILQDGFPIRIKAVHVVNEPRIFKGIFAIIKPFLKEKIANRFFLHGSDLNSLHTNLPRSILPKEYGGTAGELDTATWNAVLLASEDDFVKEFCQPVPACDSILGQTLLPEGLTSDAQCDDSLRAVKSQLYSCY

compound: CCCc1cc(C)[nH]c(=O)c1CNC(=O)c1cc(-c2ccnc(N3CCN(C)CC3)c2)cc2c1cnn2C(C)C; test: log2 fold change, soluble protein after heating vs DMSO (PISA); higher = thermal stabilisation; K562 cells, 10 uM, 30 min; active = over 0.2 and 3.5 SD of the protein, either way, in both replicates (recomputed)
Summary of the method: (§1)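 Values are thermal stability changes relative to control samples and are taken from duplicates. They are stated as log2 fold changes. Before quantification by TMTpro 16plex LC-MS/MS with equalised channel sums, K562 cells at 2×10^6 cells/mL were treated with 10 μM compound for 30 min, heated in aliquots for 3 min across 48°C-58°C, pooled, extracted in PBS with 0.5% NP-40 at 4°C, and centrifuged at 21,000xg for 90 min to give the soluble supernatant.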

Row | Target | log2 fold change
1 | TSPAN14 (UniProt Q8NG11) | inactive: -0.103
2 | UBE2J1 (UniProt Q9Y385) | inactive: -0.262
3 | UBE2H (UniProt P62256) | inactive: -0.01
4 | TUBA1C (UniProt Q9BQE3) | inactive: 0.007
5 | UBE2I (UniProt P63279) | inactive: -0.027
6 | UBAP2L isoform 1 (UniProt Q14157) | inactive: -0.045
7 | TXNRD1 (UniProt Q16881) | inactive: -0.035
8 | TXNL1 (UniProt O43396) | inactive: 0.015
9 | TTC27 (UniProt Q6P3X3) | inactive: 0.024
10 | TTI2 (UniProt Q6NXR4) | inactive: -0.018
11 | UAP1L1 (UniProt Q3KQV9) | inactive: -0.001
12 | TXNIP (UniProt Q9H3M7) | inactive: 0.001
13 | UBAP1 isoform 4 (UniProt Q9NZ09) | inactive: 0.018
14 | UBAP2L isoform 5 (UniProt Q14157) | inactive: -0.03
15 | TSG101 (UniProt Q99816) | inactive: -0.057
16 | TUBA1B (UniProt P68363) | inactive: -0.028

Row | Target | log2 fold change
17 | UBA52 (UniProt P62987) | inactive: 0.205
18 | UBE2G1 (UniProt P62253) | inactive: 0.045
19 | TYW1 (UniProt Q9NV66) | inactive: 0.069
20 | TXN2 (UniProt Q99757) | inactive: 0.095
21 | UBA1 (UniProt P22314) | inactive: 0.058
22 | UBA6 | inactive: 0.036
23 | TUBB3 (UniProt Q13509) | inactive: 0.028
24 | TSFM (UniProt P43897) | inactive: 0.181
25 | TWF2 (UniProt Q6IBS0) | inactive: -0.043
26 | TXLNG (UniProt Q9NUQ3) | inactive: -0.036
27 | TTMP isoform 3 (UniProt Q5BVD1) | inactive: -0.046
28 | TTN isoform 12 (UniProt Q8WZ42) | inactive: 0.088
29 | U2AF2 (UniProt P26368) | inactive: -0.028
30 | TSR2 (UniProt Q969E8) | inactive: 0.074
31 | TUFM (UniProt P49411) | inactive: 0.073

compound: CCN(CC)Cc1ccc2cc(COC(=O)Nc3ccc(C(=O)NO)cc3)ccc2c1 [givinostat]; test: as above
Summary of the method: as §1

Row | Target | log2 fold change
32 | TSPAN14 (UniProt Q8NG11) | inactive: -0.023
33 | UBE2J1 (UniProt Q9Y385) | inactive: 0.098
34 | UBE2H (UniProt P62256) | inactive: -0.02
35 | TUBA1C (UniProt Q9BQE3) | inactive: -0.01
36 | UBE2I (UniProt P63279) | inactive: 0.006
37 | UBAP2L isoform 1 (UniProt Q14157) | active: -0.261
38 | TTPAL (UniProt Q9BTX7) | inactive: 0.046
39 | TXNRD1 (UniProt Q16881) | inactive: 0.011
40 | TXNL1 (UniProt O43396) | inactive: 0.114
41 | TTC27 (UniProt Q6P3X3) | inactive: 0.042
42 | TTI2 (UniProt Q6NXR4) | inactive: 0.135
43 | UAP1L1 (UniProt Q3KQV9) | inactive: -0.016
44 | TXNIP (UniProt Q9H3M7) | inactive: -0.06
45 | UBAP1 isoform 4 (UniProt Q9NZ09) | inactive: 0.13
46 | UBAP2L isoform 5 (UniProt Q14157) | inactive: 0.011
47 | TSG101 (UniProt Q99816) | inactive: 0.035

Row | Target | log2 fold change
48 | TUBA1B (UniProt P68363) | inactive: -0.02
49 | UBA52 (UniProt P62987) | inactive: -0.06
50 | UBE2G1 (UniProt P62253) | inactive: -0.042
51 | TYW1 (UniProt Q9NV66) | inactive: -0.025
52 | TXN2 (UniProt Q99757) | inactive: -0.046
53 | UBA1 (UniProt P22314) | inactive: 0.074
54 | UBA6 | inactive: 0.015
55 | TUBB3 (UniProt Q13509) | inactive: -0.042
56 | TSFM (UniProt P43897) | inactive: 0.041
57 | TWF2 (UniProt Q6IBS0) | inactive: 0.032
58 | TXLNG (UniProt Q9NUQ3) | inactive: -0.009
59 | TTMP isoform 3 (UniProt Q5BVD1) | inactive: 0.405
60 | TTN isoform 12 (UniProt Q8WZ42) | inactive: 0.094
61 | U2AF2 (UniProt P26368) | inactive: 0.002
62 | TSR2 (UniProt Q969E8) | inactive: -0.008
63 | TUFM (UniProt P49411) | inactive: 0.018
